Experimental data as given in the supplement of paper PMC9578143, “Small-Molecule Ebselen Binds to YTHDF Proteins Interfering with the Recognition of N^6-Methyladenosine-Modified RNAs” (ACS Pharmacology & Translational Science, 2022).
The other results are listed elsewhere or left out. Baselines shift from plate to plate; read single values as rough.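 Hits were defined as a z-score below −3.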 Residues, ends and D or L forms follow the SMILES beside them.

molecular target: T1, YTHDF1 YTH domain (aa 365-554) (UniProt Q9BYJ9); experiment: tryptophan fluorescence intensity z-score (mean); higher = higher fluorescence, less quenching (negative = binding / quenching); conditions: 10 µM
T1 sequence (whole entry): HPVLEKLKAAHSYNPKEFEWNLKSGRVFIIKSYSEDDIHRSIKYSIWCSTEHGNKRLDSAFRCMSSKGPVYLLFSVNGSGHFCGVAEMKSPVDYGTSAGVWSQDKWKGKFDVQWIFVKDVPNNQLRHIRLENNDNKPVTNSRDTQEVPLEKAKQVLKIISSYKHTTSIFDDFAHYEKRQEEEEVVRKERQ

Tryptophan fluorescence intensity z-score, inactive:
CC(=O)N[C@@H](CS)C(=O)O (plate: M 1-2) -0.196
COc1cc(C2Oc3cc([C@H]4Oc5cc(O)cc(O)c5C(=O)[C@@H]4O)ccc3OC2CO)ccc1O (some centres undefined) (plate: M 19-20) 0.547
O=c1cc(-c2ccccc2)oc2cc(O)c(O)c(O)c12 (plate: M 19-20) -0.768
CC(C)CCCC(C)N (centres undefined) (plate: M 13-14) 0.676
COc1cccc(-c2cc(=O)c3cc(OC)ccc3o2)c1 (plate: M 19-20) 0.0593
CC[C@H](C)C(=O)O[C@H]1C[C@@H](C)C=C2C=C[C@H](C)[C@H](CC[C@@H]3C[C@@H](O)CC(=O)O3)[C@H]21 (plate: M 9-10) -0.971
CCOC(=O)c1c(C)cc(O)c(C=O)c1O (plate: M 21-22) -0.367
CCN(CC)CCOC(=O)c1ccc(N)cc1 (plate: M 5-6) -0.194
CC(C)C[C@H](N)C(=O)N[C@@H](C)C(=O)O (plate: M 21-22) (H-Leu-Ala-OH) 0.432
CC(=O)Oc1ccccc1C(=O)Oc1ccccc1C(=O)O (plate: M 23-24) 0.335
CCCCNc1cc(C(=O)O)cc(S(N)(=O)=O)c1Oc1ccccc1 (plate: M 7-8) 0.0448
O=c1c(O)c(-c2ccc(O)cc2)oc2ccccc12 (plate: M 19-20) 0.409
CNC[C@H](O)[C@@H](O)[C@H](O)[C@H](O)CO (plate: M 1-2) 0.429
Nc1ccc(S(=O)(=O)Nc2cnc3ccccc3n2)cc1 (plate: M 7-8) -0.036
NCCCC(O)(P(=O)(O)O)P(=O)(O)O (plate: M 9-10) -0.344
NC(=O)OCC(COC(N)=O)c1ccccc1 (plate: M 11-12) 0.0775
Cc1ccnc(NS(=O)(=O)c2ccc(N)cc2)n1 (plate: M 5-6) -0.126
O=c1c(O)c(-c2ccccc2)oc2cccc(O)c12 (plate: M 19-20) 0.108
CCCCC/C=C/CCC(=O)N[C@H]1[C@H](Oc2c3cc4cc2Oc2ccc(cc2Cl)[C@@H](O[C@@H]2O[C@H](CO)[C@@H](O)[C@H](O)[C@H]2NC(C)=O)[C@@H]2NC(=O)[C@H](NC(=O)[C@@H]4NC(=O)[C@H]4NC(=O)C(Cc5ccc(c(Cl)c5)O3)NC(=O)[C@H](N)c3ccc(O)c(c3)Oc3cc(O)cc4c3)c3ccc(O)c(c3)-c3c(OC4O[C@H](CO)[C@@H](O)[C@H](O)[C@@H]4O)cc(O)cc3[C@@H](C(=O)O)NC2=O)O[C@H](CO)[C@@H](O)[C@@H]1O (some centres undefined) [TEICOPLANIN[A(2-1)shown]] (plate: M 11-12) -0.669

Quoted at random: 2 records from the list, in no set order.
Tryptophan fluorescence intensity z-score, inactive:
O=c1c(O)c(-c2ccc(O)cc2)oc2ccccc12 (plate: M 19-20) 0.409
COc1cccc(-c2cc(=O)c3cc(OC)ccc3o2)c1 (plate: M 19-20) 0.0593
